Consider 60 molecules from PubChem BioAssay AID2685 (National Center for Advancing Translational Sciences (NCATS), 2010).

A short description of this test: qHTS Assay for Lipid Storage Modulators in Drosophila S3 Cells.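 For cell number change: cells counted by Cell Tracker Red CMTPX staining in the red channel.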 The conditions noted are these: BODIPY lipid droplet fluorescence, 18-24 h; for cell number change: measured here: cell count max response, cells fed with added oleic acid. Summed up: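 Drosophila S3 cells loaded with oleic acid (400 uM, as added) and compounds at several concentrations; lipid droplets imaged by 488-nm laser-scanning cytometry, 500–530 nm intensity and object ratio to cell channel. Percent activity normalized to 20 uM Triacsin C.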
(qHTS replaces the single test concentration by a dilution series.)

Where [1] appears, read: measured here: lipid fluorescence (Fed channel) AC50, cells fed with added oleic acid.
[2] abbreviates: measured here: cell number channel AC50, cells fed with added oleic acid.

The term AC50 denotes the concentration at which the activity in the assay is half-maximal. Read a low AC50 as greater potency.

This is one part of the list. Further columns of the screen follow, without active or inactive calls. Compounds called inactive in the main read-out are mostly missing here. Potencies come from curve fits of mixed quality, noted in brackets.

Turning to `Oc1ccccc1-c1cc(-c2ccco2)[nH]n1`, the cell number change was 23.5%. Further, the concentration at half-maximal activity (AC50) under setting [1] is 29.1 µM [rising, partial curve]. As to `COC(=O)CSc1nnc(COc2ccc3ccccc3c2)o1`, the cell number change was -9.62%. Also, under setting [1], the AC50 is 29.1 µM [rising, partial curve]. Take `CC(=O)Nc1ccc(C(=O)N(C)C(C(=O)Nc2ccccc2)c2ccccn2)cc1` (stereo unspecified): under setting [2], the half-maximal activity concentration (AC50) is 4.11 µM [falling, single point].

As for `C(=N\n1cncn1)/c1ccc(N2CCOCC2)cc1`, the cell number change was -9.2%. In addition, the half-maximal activity concentration (AC50) under setting [2] was 6.51 µM [falling, single point]. Moreover, the AC50 under setting [1] was 6.51 µM [falling, single point]. Consider `C/C(CC(=O)Nc1ccccc1-c1ccccc1)=N\NC(=O)COc1ccc(C)cc1Br`, for which the half-maximal activity concentration (AC50) under setting [2] was 4.11 µM [rising, partial curve]. On to `O=C(CCc1nc(-c2ccccc2F)no1)NCCN1CCOCC1`, for which the cell number change was -79.1%. Under setting [2], the half-maximal activity concentration (AC50) is 4.61 µM [falling, full curve, poor fit]. Moreover, the AC50 under setting [1] was 1.3 µM [falling, full curve]. Turning to `CCCCC[C@H]1CN(Cc2ccccc2)C(=O)[C@@H]1CC(=O)NCc1ccc(OC)cc1`, the cell number change was -24.6%.

Take `Cc1nn(C)cc1S(=O)(=O)N1CCCC(C(=O)O)C1` (stereo unspecified): the cell number change was found to be 4.25%. Further, the AC50 under setting [1] was 0.00517 µM [rising, full curve, poor fit]. On to `COCCCn1cnc2oc3nc4ccccc4nc3c2c1=O`, for which the cell number change amounted to 4.18%. Moreover, the concentration at half-maximal activity (AC50) under setting [1] is 18.4 µM [rising, single point]. On to `COC(=O)c1ccc(CSc2nnc(NC(=O)c3cc4c(s3)CCCC4)s2)cc1`, for which the cell number change is -3.95%. Moreover, the AC50 under setting [2] is 6.51 µM [falling, single point].

For `CN(C)c1ccc(NC(=O)Oc2ccccc2)cc1`, the cell number change was 13%. The concentration at half-maximal activity (AC50) under setting [1] is 29.1 µM [rising, single point]. For `Cc1cc(NC(=O)C(C)Sc2nc(-c3cccs3)nc3ccccc23)no1` (stereo unspecified), the cell number change was -42.3%. Further, the AC50 under setting [2] was 20.6 µM [falling, single point]. Take `CCN(CCn1cccn1)C(=O)CCc1nnc(Cc2c[nH]c3ccccc23)o1`: the cell number change is -41.6%. Also, the half-maximal activity concentration (AC50) under setting [2] is 32.6 µM [falling, partial curve]. Further, the concentration at half-maximal activity (AC50) under setting [1] is 16.4 µM [falling, partial curve, poor fit]. Take `Cc1ccc(NC(=O)CN2C(=O)NC3(CCCc4ccccc43)C2=O)cc1S(=O)(=O)N1CCOCC1` (stereo unspecified): the cell number change is -20.5%. For the molecule `COc1ccccc1-c1cn(S(=O)(=O)c2ccc(F)cc2)nc1N`, the cell number change was -26.6%. The AC50 under setting [1] was 1.16 µM [rising, single point].

`CCCCOc1c(Cl)cc(C(=O)N(C)CC(=O)Nc2ccc(N3CCOCC3)cc2)cc1OCC`: the cell number change was found to be 15.5%. Moreover, the AC50 under setting [1] was 13 µM [rising, partial curve]. With `COc1ccc(/C=C2\SC(=S)N(CCCC(=O)Nc3ccc(C(=O)O)cc3)C2=O)cc1OC`, the cell number change is 10.3%. In addition, under setting [2], the half-maximal activity concentration (AC50) was 2.91 µM [rising, single point]. In addition, under setting [1], the half-maximal activity concentration (AC50) was 29.1 µM [falling, single point]. Regarding `Cc1ccc(NC(=O)N2CCN(S(=O)(=O)c3ccccc3)CC2)cc1`, the cell number change is 18.9%. Further, the half-maximal activity concentration (AC50) under setting [1] is 2.06 µM [rising, partial curve]. As for `CC1(c2ccccc2)NC(=O)N(CC(=O)Nc2ccc(S(=O)(=O)Nc3ncccn3)cc2)C1=O` (stereo unspecified), the cell number change was -20.5%. The AC50 under setting [2] is 0.291 µM [falling, full curve, poor fit]. Moreover, the AC50 under setting [1] is 0.651 µM [falling, full curve].

As for `CC(=O)Nc1ccc(Nc2ncc([N+](=O)[O-])c(Nc3ccc(NC(C)=O)cc3)n2)cc1`, the cell number change was -6.98%.

`COc1ccc2c(=O)c3c(=O)n(Cc4ccco4)c(-c4ccccc4)nc3oc2c1`: the cell number change is -21.9%. Also, under setting [1], the AC50 is 2.06 µM [rising, partial curve]. For the molecule `NNC(=O)c1csc(COc2cc(Cl)cc(Cl)c2)n1`, the cell number change was determined as 14.4%. The half-maximal activity concentration (AC50) under setting [1] is 18.4 µM [rising, single point].

`Cc1ccc(N)c(C(O)(C(F)(F)F)C(F)(F)F)c1`: the cell number change was -6.81%. With `Cc1ccc(Cl)cc1N1CCN(C(=O)c2noc(C(C)C)c2[N+](=O)[O-])CC1`, the cell number change is -41.1%. Besides, the AC50 under setting [1] was 29.1 µM [falling, single point].

On to `COCCN(C(=O)CSc1nnc(-c2ccc(Cl)cc2)o1)c1c(N)n(CC(C)C)c(=O)[nH]c1=O`, for which the cell number change was 33.9%. Consider `CN(C)CCCNC(=O)c1ccc(CN(c2ccccc2)S(C)(=O)=O)cc1`, for which the cell number change is 13.6%. Moreover, under setting [1], the AC50 was 16.4 µM [rising, partial curve, poor fit]. As for `Cc1ccc(Cl)cc1NC(=O)CNCC(c1ccccc1)N(C)C` (stereo unspecified), the cell number change turned out to be 4.17%. Also, under setting [1], the concentration at half-maximal activity (AC50) was 29.1 µM [falling, single point]. For `CCC(CC)NC(=O)c1ccc2c(c1)OCCO2`, the cell number change was -48.6%. Also, the concentration at half-maximal activity (AC50) under setting [2] was 29.1 µM [falling, single point]. For `COc1cccc(C(=O)N/N=C(/CCC(=O)O)c2ccccc2)c1`, the cell number change was -1.67%. The AC50 under setting [1] was 7.31 µM [rising, partial curve, poor fit]. As to `COc1cc(C(=O)NCCNC(=O)c2ccc(C)nc2)cc(OC)c1OC`, the cell number change was found to be 15.1%.

As to `Cc1cc(C)c(C(=O)CSc2nnc(-c3cccnc3)n2C)c(C)c1`, the cell number change came to 63.9%. Further, under setting [2], the half-maximal activity concentration (AC50) is 1.3 µM [rising, full curve]. `O=C1CC(=O)C(n2cncn2)C(c2ccc(Cl)cc2Cl)C1` (stereo unspecified): the cell number change was -48%. The half-maximal activity concentration (AC50) under setting [2] was 14.6 µM [falling, partial curve]. Turning to `Cc1cccc(N2CC(C(=O)Nc3ccc(S(=O)(=O)N4CCOCC4)cc3)CC2=O)c1C` (stereo unspecified), the cell number change amounted to 6.58%. For `COc1ccc2nc(NC(=O)CS(=O)(=O)Cc3ccccc3)sc2c1`, the cell number change was 2.32%. Also, the concentration at half-maximal activity (AC50) under setting [2] is 3.66 µM [rising, single point]. Regarding `Cc1sc(NC(=O)c2ccccc2)c(C(c2ccc(Cl)cc2)N2CCN(CCO)CC2)c1C` (stereo unspecified), the cell number change was -14.4%. Moreover, under setting [1], the concentration at half-maximal activity (AC50) was 6.51 µM [falling, single point]. On to `Cc1cc(C)cc(NCc2cc(=O)oc3cc(-c4ccccc4)c(O)cc23)c1`, for which the cell number change was -51.4%. For the same molecule, under setting [2], the AC50 is 16.4 µM [falling, partial curve]. For the same molecule, the AC50 under setting [1] was 18.4 µM [falling, partial curve].

Turning to `Cc1c([N+](=O)[O-])cc(C(=O)NCc2ccc(F)cc2)cc1[N+](=O)[O-]`, the cell number change was determined as 66.5%. Under setting [1], the AC50 was 29.1 µM [rising, single point].

Consider `Nc1nonc1-n1nnc(C(=O)N/N=C/c2ccncc2)c1CSc1ccccc1`, for which the cell number change came to 11.6%. Also, under setting [1], the AC50 was 29.1 µM [falling, single point]. Turning to `CC(=O)N1CN(Cc2ccccn2)Cc2c1sc1c2CCCC1`, the cell number change was determined as 20.2%. In addition, the AC50 under setting [1] is 0.0164 µM [falling, full curve, poor fit]. With `C=CCC(=O)OCC(=O)Nc1ccc(Cl)cn1`, the cell number change is 0.119%. Also, the concentration at half-maximal activity (AC50) under setting [1] is 0.517 µM [rising, single point]. For `CC(NC(=O)COC(=O)c1cc(Cl)nc(Cl)c1)c1ccccc1` (stereo unspecified), the cell number change turned out to be 5.99%. Further, the AC50 under setting [1] is 0.316 µM [falling, full curve]. Consider `COc1ccc(C(=O)N/C(=C/c2ccco2)C(=O)N2CCCCCC2)cc1`, for which the cell number change was -11%. The AC50 under setting [1] is 6.51 µM [falling, single point]. For the molecule `CCN(CCCCCN(C)C)Cc1cc2ccccc2o1`, the concentration at half-maximal activity (AC50) under setting [1] is 16.4 µM [rising, single point]. In the case of `Cc1nn(Cc2noc(C(=O)NCc3ccccn3)n2)c(C)c1Br`, the cell number change is -1.47%. Moreover, the AC50 under setting [1] was 0.00411 µM [falling, full curve, poor fit]. On to `Cc1ccc(C2=NN(CCC#N)C(=O)CO2)cc1`, for which the cell number change is 9.26%. Besides, under setting [1], the AC50 was 0.092 µM [falling, full curve, poor fit].

On to `CCN(C(=O)CCc1nnc2ccc(NCc3ccco3)nn12)c1ccccc1`, for which the cell number change is -17.3%. Moreover, under setting [1], the AC50 is 0.58 µM [falling, single point]. Consider `CC(C)c1nc(CN2CCCCC2)cc(=O)[nH]1`, for which the cell number change was determined as 67.7%. Also, the AC50 under setting [2] was 6.51 µM [falling, single point]. The AC50 under setting [1] was 6.51 µM [falling, single point].

On to `Cc1ccc(S(=O)(=O)NC(=NCc2ccccc2)c2ccc(F)cc2)cc1`, for which the cell number change was determined as 23.4%. Moreover, the AC50 under setting [1] is 2.06 µM [rising, full curve, poor fit]. Take `O=C(COC(=O)CNS(=O)(=O)/C=C/c1ccccc1)Nc1cccc2ccccc12`: the cell number change amounted to 21%. For `CCCc1ccc2oc(C(=O)NCCCN3CCOCC3)c(C)c2c1`, the cell number change came out at 50.4%. For the same molecule, the AC50 under setting [2] was 29.1 µM [rising, single point]. Besides, under setting [1], the concentration at half-maximal activity (AC50) is 29.1 µM [rising, single point].

Regarding `Fc1ccc(C(c2nnnn2C2CCCC2)N2CCc3ccccc32)cc1` (stereo unspecified), the cell number change is -21.3%. The AC50 under setting [1] was 9.2 µM [falling, partial curve]. In the case of `C=C(C)COc1ccc(-c2nc(N)ncc2Oc2ccccc2OC)c(O)c1`, the cell number change was -23.5%.

On to `COC(=O)c1[nH]c2ccc(C)cc2c1NC(=O)CCN1CCN(Cc2ccc3c(c2)OCO3)CC1`, for which the cell number change is -24.6%. For the same molecule, the concentration at half-maximal activity (AC50) under setting [1] is 25.9 µM [falling, partial curve, poor fit].

For the molecule `Cc1c(Nc2cc(=O)oc3ccccc23)c(=O)n(-c2ccccc2)n1C`, the cell number change was -30.8%. Also, the concentration at half-maximal activity (AC50) under setting [2] was 5.8 µM [falling, full curve, poor fit].

Turning to `CC(=O)Nc1ccc(S(=O)(=O)NC(CC(=O)NCCCN2CCOCC2)C(C)C)cc1` (stereo unspecified), the cell number change turned out to be 7.76%.

In the case of `CCn1cc(C(=O)NCc2ccncc2)c(=O)c2cc(F)c(N3CCN(C(=O)c4ccco4)CC3)cc21`, the cell number change was -20.8%. Further, the AC50 under setting [1] was 1.3 µM [falling, full curve].

`Cc1cc(C)c(NC(=O)C2CCCO2)c(C)c1NC(=O)C1CCCO1` (stereo unspecified): the cell number change is 7.14%. Further, under setting [1], the half-maximal activity concentration (AC50) was 29.1 µM [falling, single point]. Take `Cc1cc(-c2csc3ncnc(N4CCN(C)CC4)c23)cc(C)c1C`: the cell number change stood at 4.58%. Moreover, under setting [1], the AC50 is 20.6 µM [rising, single point]. For `Cc1ccc(NC(=O)C2CCCN(C(=O)c3ccc(Cl)cc3)C2)cc1C` (stereo unspecified), the cell number change stood at 44.7%. Besides, the concentration at half-maximal activity (AC50) under setting [2] is 16.4 µM [rising, single point]. As to `CC(=O)NC(CCS(C)(=O)=O)C(=O)Nc1ccccc1C` (stereo unspecified), the cell number change was -56.5%. Further, the AC50 under setting [2] was 23.1 µM [falling, partial curve, poor fit]. The AC50 under setting [1] was 29.1 µM [rising, single point].
